The target in assay [1] is FLAG-seipin, long translation (additional 64 amino acids at the N terminus) (human). Nature of the assay: co-IP; HEK293 cells co-transfected; ODG lysis buffer (50 mM ODG, 50 mM Tris pH 6.8, 150 mM NaCl, 1 mM EDTA); anti-FLAG agarose 2 h at 4 °C; elution with 3xFLAG peptide; immunoblot.
For assay [2], the target named is Yn-seipin (N-terminal fragment of YFP fused to the N terminus of seipin) (human) (UniProt Q96G97). Nature of the assay: split reporter; BiFC with halves of YFP in co-transfected HEK293 cells; 37 °C 4 h, 32 °C 20 h, 30 °C 2 h; fixed cells.
For assay [3], the target named is FLAG-seipin-Yn (N-terminal fragment of YFP fused to the C terminus of seipin) (human) (UniProt Q96G97). The description is as above.
The target is the same in assay [4]. Nature of the assay: split reporter; BiFC with halves of YFP in 3T3-L1 preadipocytes induced to differentiate and co-transfected; temperature shift; fixed at day 3 of differentiation.

Sequences of proteins named here, by UniProt entry; tags and fusion partners are left off. A change or cut given only in a name is not applied to a line headed by its entry.
UniProt Q96G97: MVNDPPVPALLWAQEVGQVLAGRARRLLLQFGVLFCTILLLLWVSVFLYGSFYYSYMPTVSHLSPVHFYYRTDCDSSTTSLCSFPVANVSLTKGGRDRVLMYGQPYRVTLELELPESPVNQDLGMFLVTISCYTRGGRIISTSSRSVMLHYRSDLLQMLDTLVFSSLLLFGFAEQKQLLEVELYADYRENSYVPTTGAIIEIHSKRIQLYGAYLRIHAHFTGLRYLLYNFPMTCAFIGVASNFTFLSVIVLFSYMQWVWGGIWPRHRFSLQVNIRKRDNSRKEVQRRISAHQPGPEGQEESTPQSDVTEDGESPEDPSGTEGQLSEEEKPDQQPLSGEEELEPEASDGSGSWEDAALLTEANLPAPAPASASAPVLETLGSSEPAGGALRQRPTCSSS

Our source for the binding values is article PMC4338318.

No constants are given. Whether binding was seen depends on the method and setting. In cells and extracts the contact can be indirect. For part of these data: Binding can be weak; no strength is given. Sequences can lack the tags named with a protein.

B1: AGPAT2-Myc (Myc-tagged human 1-acylglycerol-3-phosphate O-acyltransferase 2) (enzyme, UniProt O15120 24-278)
chain: AEFYAKVALYCALCFTVSAVASLVCLLRHGGRTVENMSIIGWFVRSFKYFYGLRFEVRDPRRLQEARPCVIVSNHQSILDMMGLMEVLPERCVQIAKRELLFLGPVGLIMYLGGVFFINRQRSSTAMTVMADLGERMVRENLKVWIYPEGTRNDNGDLLPFKKGAFYLAVQAQVPIVPVVYSSFSSFYNTKKKFFTSGTVTVQVLEAIPTSGLTAADVPALVDTCHRAMRTTFLHISKTPQENGATAGSGVQPAQ
Take B1: in assay [1], the binding result is reported as “binds”.

B2: Myc-AGPAT2-Yc (C-terminal fragment of YFP fused to the C terminus of AGPAT2-Myc) (enzyme, UniProt O15120 24-278)
chain: B1 chain
Take B2: the binding entry in assay [2] is “no binding”; in assay [3], “binds”; in assay [4], “binds”.

B3: Yc-myc-AGPAT2 (C-terminal fragment of YFP fused to the N terminus of AGPAT2-Myc) (enzyme, UniProt O15120 24-278)
chain: B1 chain
With B3, the binding result in assay [2] and in assay [3] was “no binding” throughout.
